These are literature values, as cited in PMC9289666, “Highly Parallelized, Multicolor Optogenetic Recordings of Cellular Activity for Therapeutic Discovery Applications in Ion Channels and Disease-Associated Excitable Cells” (Frontiers in Molecular Neuroscience, 2022).

For this data set, the system named is Nav1.5. Conditions: cited from earlier work.

With `Nc1nc2ccc(OC(F)(F)F)cc2s1` [Riluzole], the IC50 was 17.6 µM.

As usually defined, the IC50 is the concentration that inhibits the measured activity by half.
